Data taken from patent US20230331778 (published 2023).

Assay: general procedure: Fmoc solid-phase peptide synthesis; Fmoc-Rink Amide AM resin
Conditions: for crude mass / crude yield: whole synthesis; for crude yield: scale of the general procedure 33 mmol; for final HPLC purity: Analytical HPLC
[1] = oxidative folding step, hydrochloride

Row | Substance | step yield (purification step, hydrochloride) [%] | crude mass (hydrochloride, run 1) [g] | crude mass (hydrochloride, run 2) [g] | crude yield (hydrochloride, run 1) [%] | crude yield (hydrochloride, run 2) [%] | final HPLC purity [1] [%] | oxidative folding yield [1] [%] | final HPLC purity (purification step, chloride salt) [%]
1 | Acetyl-D-Cys(Trt)-D-Ala-D-Arg(Pbf)-D-Arg(Pbf)-D-Arg(Pbf)-D-Ala-D-Arg(Pbf)-Rink Amide Resin | 50 | 18 | 18.4 | 96.7 | 98.3 |  |  | 
2 | Etelcalcetide |  |  |  |  |  | 99.8 | 43 | 99.8
